Laboratory results published in PubChem BioAssay AID1347423 (Functional Genomics Laboratory (NCATS/FGL), 2020).
Hit rate of the full screen: of about 52,000 sequences, about 210 (0.4%) were called active.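 How the source made its calls: active means gene whose silencing raises cell survival under the drug, median off-target-corrected z-score across its silencing RNAs 2 or more; inactive means the rest.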 This is one part of the list.

Test: Resistance to Poly (ADP-Ribose) Polymerase inhibitor: Gene Identification via Genome-wide siRNA Screen
Conditions: mouse BRCA2 R2336H ES cells, olaparib, CellTiter-Glo viability; hits give high values
How it was run: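 Mouse BRCA2 R2336H ES cells were reverse-transfected with siRNA (20 nM final), treated at 48 h with 500 nM olaparib, and read by CellTiter-Glo after 72 h. Scores: MAD-based z per siRNA, median per gene, seed off-target correction.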

Sequence	z-score
GGCCGUUCCAAAAGAGACATT against Gm963	inactive: 1.93
GGAGCUAGAGAGAUCUGCATT against 1810049K24Rik	inactive: -1.16
GGGAAGGCUGAAUGACUGCTT against Vamp5	inactive: -0.286
CCUCAGUACGUGCAGUAUGTT against Mos	inactive: 0.331
CGGUCUGCUCUACAUUGUCTT against Nek4	inactive: 0.0821
GGCAUGAUCAUGCAUGUGATT against Hils1	inactive: -0.199
GGUGCUUCUUUUGAGAAUGTT against D230014K01Rik	inactive: 2.19
GGUGAUGUAUUAUUAUCCATT against Defb12	inactive: 0.642
GGUGGUAACAUUAACUGAGTT against Solt	inactive: -2.31
CGGUUUCAGUCUUUUGGAUTT against Cd84	inactive: 1.6
GGACCUGGAAAUAAUUGUUTT against Pex2	inactive: -1
GGAAUGCAAUGACAAAUGATT against D17Ertd288e	inactive: 0.0555
GGCUUCUAUUUGUUUCCUGTT against Cbl	inactive: -0.452
GGAAACCAUUGAAGAUGUUTT against Psmd13	inactive: -3.12
CGCGUUGGCAGAAAUUGAATT against 4933421G18Rik	inactive: 0.487
GGUCAUAUAGGGAUACUUATT against Dhrs2	inactive: -1.23
GGCCCUUUAUUUUGAGUACTT against Cp	inactive: 2.53
GGAUGAGAGUCCACAGCAATT against Edg7	inactive: 1.81
GCAUAGUAGGAUCUGUCUUTT against Tdpoz5	inactive: 0.614
GGAAUCCUGCUGUGGUGUUTT against Cyp2c65	inactive: -0.491
GGAAGAAGAAGGAGCUAGATT against D11Ertd730e	inactive: -1.74
GGAAACUAUGGGCAAGUAATT against Olfr1239	inactive: -1.58
GGAGGGAAGAAACAAUCUATT against Rnf40	inactive: -0.117

Sequence	z-score
GGUCCUACUAUAACCUGCGTT against Gdf3	inactive: -1.21
GGUGAACUUGAAGAAGCCUTT against Ero1l	inactive: 0.395
GGAAUCUUUGAGCUGGUGGTT against Map4k6	inactive: 0.243
GGUGAGUAUAUUCAAGUUATT against Ndor1	inactive: 1.07
AAAAGCUUCACCUAACUAUTT against Ascc1	inactive: 0.832
GGCCUCUUUUCUGCUGCUUTT against Krt1-12	inactive: -1.27
CCUCAGCUCCGUAGAUCUUTT against B130017I01Rik	inactive: -0.1
GGAGUUUCACCAGAAGGCUTT against A430025D11Rik	inactive: -1.04
GGACAUAUUGGAUGGUGAUTT against Usp2	inactive: 3.06
GGAAGGAUAUGAGAAUUUCTT against Nt5c3	inactive: 1.32
CCGACUUGGAUAUUGCAUATT against 1810045K07Rik	inactive: 0.12
GGAAGAAAGGAGAAAACCATT against Rars	inactive: -2.88
GGAGGUGGUCCAGAAUUUUTT against Cotl1	inactive: -0.412
GGAGUGCGGACGAUAAUACTT against Ppp1r3f	inactive: 0.357
GCCUUCCAACGAAGUUAAUTT against Epha3	inactive: -1.64
GCUAAGUAAGGUGGUAUAUTT against Dgka	inactive: -1.03
GCCUGUUCCAGAAUUGCUATT against Bcl7c	inactive: -0.142
GGUCCAGCUCAUGAAACUUTT against Snf1lk	inactive: -1.38
GGUGGAGAUAAAAAGAGAGTT against Hnrpu	inactive: -0.753
GGAACAAAGAUGUCAAGUCTT against Olfr521	inactive: 0.379
GGCUAAUUGCUACGUUCCCTT against 2010011I20Rik	inactive: 0.281
CGGUUCCAUUCUACAUUUUTT against Scpep1	inactive: -0.174
GGUUCACAUGUACAUUAAATT against C530008M17Rik	inactive: -0.14

Sequence	z-score
GCGAUGAUGUACAAAAGGGTT against Jph3	inactive: 0.77
GCGACAUCUCUCAAGCUUATT against BC036313	inactive: 2
GCUGACGAAAUCAAGAACCTT against Sox9	inactive: 0.149
GGGUUUUUGUGGGUCUAGGTT against Lta	inactive: 0.932
GGAAAGAAGAAAUGAGAAGTT against 0610005I04	inactive: 0.759
GGACGUGGGCUCUCUAGAUTT against S100a13	inactive: -1.32
CCAUCUAUACCCUGGACGATT against Galr2	inactive: -0.859
GUCUCUUUGCCCUGUGCUATT against V1rb10	inactive: -0.332
GCUGGAUGCGACAAUCUGATT against Aqp11	inactive: 0.903
GCAUAAACUUUAGGCAUGGTT against 4833435D08Rik	inactive: -0.435
CGCGUAUAGAACAUUAAUCTT against Cdc14b	inactive: 1.05
GGAACACACCUGUUAUGAUTT against Prkag3	inactive: 2.68
CCUACUAACAACAAGAGCATT against Pcdhga5	inactive: -0.521
GGAGCAUUUGUUUCCAAGATT against Cd38	inactive: -0.384
GGCAUUAACCAUGAGUGUATT against Zfp423	inactive: -2.26
GGUCCAGCAUUUGAAAUUATT against Moap1	inactive: 0.674
CGCUUGCUCGGAUUGACAATT against Rya3	inactive: -0.918
GCAAGAGCAUGCUUACGGUTT against Ccl1	inactive: 1.15
GGCGUAUGUUCGCUUGGCUTT against Rpl23a	inactive: -3.18
CCCAAAAACGUGACAUCUUTT against Inppl1	inactive: 0.657
GGACGGUCUUGCCUUCUUCTT against MGC67174	inactive: 0.791

4 records picked at random from those above:
Sequence	z-score
GGUCCAGCAUUUGAAAUUATT against Moap1	inactive: 0.674
GGGUUUUUGUGGGUCUAGGTT against Lta	inactive: 0.932
GGACGUGGGCUCUCUAGAUTT against S100a13	inactive: -1.32
GCUGGAUGCGACAAUCUGATT against Aqp11	inactive: 0.903
